Laboratory results as given in PubChem BioAssay AID1347131 (National Center for Advancing Translational Sciences (NCATS), 2019).
About 2,000 (0.49%) of roughly 410,000 compounds were called active. Inconclusive means that the source gave no clear call. Such entries were picked first, then a sample of the others. The call rests on the fitted dose curve; tested in HEK293 reporter line. Potencies beside an inconclusive call are fits to weak or partial responses and may not hold up.

test: qHTS Assay for Foot and Mouth Disease Virus Antivirals: Primary Screen against the MLPCN compound library; settings: FMDV antiviral cell-based qHTS; activity, negative = inhibition: at 57.9 µM (top of the series); further: nearly all actives have a fitted effect of over 55% in size
Potency means the concentration at half of the fitted maximal effect.

Compound	Potency	activity, negative = inhibition
CCc1ccc(NC(=O)Nc2ccsc2C(=O)OC)cc1	inconclusive: 15.8 µM [inhibitor, single point]	–
COc1ccc(S(=O)(=O)N(C)C[C@@H]2Oc3ccc(NS(=O)(=O)c4cn(C)cn4)cc3C(=O)N([C@@H](C)CO)C[C@@H]2C)cc1	inconclusive: 8.91 µM [inhibitor, partial curve]	–
COc1cc2c(cc1OC)C(c1ccc(-c3ccc(Cl)c(Cl)c3)o1)=NCC2	inconclusive: 17.8 µM [inhibitor, partial curve, poor fit]	–
Cc1ccc(CNC(=O)CSc2c3c(nc4cc(Cl)ccc24)CCCC3)o1	inconclusive: 28.2 µM [inhibitor, partial curve, poor fit]	–
COc1ccccc1OCC(=O)Nc1ccc(CSc2ccccc2)cc1C	inconclusive: 7.08 µM [inhibitor, partial curve]	–
COc1ccc(CNC(=O)C2CCN(C(=O)c3csc(Nc4ccc(C)cc4)n3)CC2)cc1	inconclusive: 25.1 µM [inhibitor, partial curve, poor fit]	–
COc1cc(SC)ccc1C(=O)Nc1nccs1	inconclusive: 15.8 µM [inhibitor, single point]	–
CCCS(=O)(=O)c1ncc(Cl)c(C(=O)Nc2scc(-c3ccccc3)c2C(=O)OCC)n1	inconclusive: 25.1 µM [inhibitor, single point]	–
COc1ccc2nc(C)cc(Sc3nc4ccccc4s3)c2c1	inconclusive: 15.8 µM [inhibitor, partial curve, poor fit]	–
COc1ccc(C(=O)Nc2ccc(C)c(S(=O)(=O)N3CCOCC3)c2)cc1S(=O)(=O)N1CCCC1	inactive	–
O=C(NC1(Cc2ccccc2)CCN(Cc2ccc(-c3ccccc3)cc2)C1=O)c1ccccc1 (stereo not given)	inconclusive: 39.8 µM [inhibitor, single point]	–
CC1(C(=O)Nc2cccc(Oc3ccccc3)c2)CCN1Cc1cccc2c1OCO2 (stereo not given)	inactive	–
COc1ccc(OC)c(NC(=O)Cc2coc3ccc4ccccc4c23)c1	–	inconclusive: -31.3% [inhibitor]
CCOC(=O)c1c(NC(=O)/C=C/C(=O)O)sc(C)c1-c1ccc(F)cc1	inconclusive: 31.6 µM [inhibitor, single point]	–
Cc1cc(C(=O)Nc2nc(C)c(C(=O)N(C)C)s2)ccc1[N+](=O)[O-]	active: 15.8 µM	–
CN(CCC#N)c1ccc(/C=C(\C#N)c2ccccn2)cc1	active: 14.1 µM	–
CCOC(=O)/C(=C\c1ccccc1)C(=O)CCN1CCOCC1	inconclusive: 17.8 µM [inhibitor, partial curve, poor fit]	–
O=C(Nc1cc(Cl)cc(Cl)c1)c1cccc(OC(F)F)c1	inconclusive: 39.8 µM [inhibitor, single point]	–
CC(C)(C)NC(=O)/C(=C\c1ccco1)NC(=O)c1ccco1	inconclusive: 3.98 µM [inhibitor, partial curve]	–
Cc1nnc(-c2ccco2)c2cn(-c3cccc(Br)c3)nc12	inconclusive: 22.4 µM [inhibitor, partial curve, poor fit]	–

Fetched by compound from above, two records:
Compound	Potency	activity, negative = inhibition
COc1ccc2nc(C)cc(Sc3nc4ccccc4s3)c2c1	inconclusive: 15.8 µM [inhibitor, partial curve, poor fit]	–
COc1ccc(OC)c(NC(=O)Cc2coc3ccc4ccccc4c23)c1	–	inconclusive: -31.3% [inhibitor]

Later entries

Compound	Potency	activity, negative = inhibition
CCCn1nc(C(=O)Nc2ccc3nc(N4CCOCC4)sc3c2)ccc1=O	inconclusive: 12.6 µM [inhibitor, partial curve, poor fit]	–
Cc1noc(/C=C/c2cccnc2)c1[N+](=O)[O-]	inconclusive: 14.1 µM [inhibitor, partial curve, poor fit]	–
O=C(c1cccc2c1-c1ccccc1/C2=N/O)N1CCCCC1	inconclusive: 20 µM [inhibitor, single point]	–
COc1cc(SC)ccc1C(=O)Nc1ccc(Br)cn1	active: 8.91 µM	–
COc1ccc(-n2c(O)c(/C=C3\C=Nc4ccc(Br)cc43)c(=O)[nH]c2=O)c(OC)c1	inconclusive: 25.1 µM [inhibitor, partial curve, poor fit]	–
O=C(NNC1=C(C(=O)C(F)(F)F)CCC1)c1cccc(Cl)c1	–	inconclusive: -31.1% [inhibitor]
COc1ccc(C(=O)O/N=C(\N)c2ccccn2)cc1	inconclusive: 2 µM [inhibitor, full curve, poor fit]	–
CC(C)(C)c1ccc(-c2noc(CCC(=O)Nc3cccnc3)n2)cc1	inconclusive: 14.1 µM [inhibitor, partial curve]	–
C=CCCCCCCCCc1nc(SCC(=O)O)n[nH]1	inconclusive: 2.82 µM [inhibitor, full curve]	–
C/C(=N/NC(N)=S)c1ccc(Br)s1	inconclusive: 1.41 µM [inhibitor, full curve]	–
O=C(c1ccccc1)N1CCN(c2cc(-c3ccccc3)nc3cc(-c4cccc(Cl)c4)nn23)CC1	inconclusive: 25.1 µM [inhibitor, partial curve, poor fit]	–
Cc1cccc(NC(=O)c2cc(S(=O)(=O)c3ccccc3)ccc2Cl)c1	–	inconclusive: -39.6% [inhibitor]
CCc1nc(SCc2cccnc2)c2c(=O)n(C)c(=O)n(C)c2n1	inactive	–
O=S(=O)(c1cccc(C(F)(F)F)c1)n1c(/C=C/c2ccccc2)nc2ccccc21	inconclusive: 39.8 µM [inhibitor, single point]	–
CCOC(=O)C1=C(c2ccccc2)NC(SCC(=O)Nc2ccc(C)cc2)=C(C#N)C1c1ccco1 (stereo not given)	inconclusive: 15.8 µM [inhibitor, partial curve, poor fit]	–
O=C(NC(=S)Nc1ccc2c(c1)OCO2)c1ccc(Cl)cc1	inactive	–
COc1ccc(Nc2ccc(N3C(=O)CC(C)C3=O)cc2[N+](=O)[O-])cn1 (stereo not given)	inactive	–
Clc1ccc(CSc2nc3ccncc3[nH]2)cc1	inconclusive: 20 µM [inhibitor, single point]	–
Cc1cccc(NC(=O)N(Cc2cc3cc(C)cc(C)c3[nH]c2=O)CC2COCCO2)c1 (stereo not given)	inconclusive: 17.8 µM [inhibitor, partial curve, poor fit]	–
Cc1ccc(S(=O)(=O)N2CC(C(=O)O)=CC[C@H]2c2ccc(Cl)cc2)cc1	inconclusive: 17.8 µM [inhibitor, partial curve]	–

Compound	Potency	activity, negative = inhibition
Cc1ccc(OCCOc2cccc(C=C3C(=O)NC(=O)NC3=O)c2)c(C)c1	inconclusive: 14.1 µM [inhibitor, partial curve, poor fit]	–
CCCCCOC(=O)C1=C(C)NC(=O)NC1c1ccc(OC)cc1 (stereo not given)	inconclusive: 7.08 µM [inhibitor, partial curve, poor fit]	–
COc1ccc(-c2nc(-c3cccs3)c(-c3cccs3)[nH]2)cc1OC	inconclusive: 25.1 µM [inhibitor, single point]	–
CC(C)/C=C(/C(=O)c1ccc(Cl)cc1Cl)n1cncn1	inconclusive: 35.5 µM [inhibitor, partial curve, poor fit]	–
O=C(O)c1cccc(NC(=S)NC(=O)c2ccc3ccccc3c2)c1	inconclusive: 14.1 µM [inhibitor, partial curve, poor fit]	–
CCOc1ccc(C2SCC(=O)Nc3c2c(=O)[nH]n3C2CCCCCC2)cc1 (stereo not given)	inconclusive: 17.8 µM [inhibitor, partial curve, poor fit]	–
O=C1C(CSCc2ccccc2)NC(=S)N1c1ccccc1 (stereo not given)	inconclusive: 28.2 µM [inhibitor, partial curve, poor fit]	–
COC(=O)C1CCN(C(=O)c2cc(-c3ccc(Cl)s3)nc3ccccc23)CC1	inconclusive: 35.5 µM [inhibitor, single point]	–
Cc1ccc(C(=O)N(Cc2nc(-c3ccc(C)cc3)no2)C(C)C)cc1	inconclusive: 10 µM [inhibitor, partial curve, poor fit]	–
Cn1c(Cl)cnc1C1CC(=O)c2cc(Cl)ccc2O1 (stereo not given)	inconclusive: 20 µM [inhibitor, partial curve, poor fit]	–
CCOC(=O)c1c(NC(=O)CSc2nnc(-c3cccnc3)n2Cc2ccco2)sc(C)c1C	inconclusive: 22.4 µM [inhibitor, partial curve, poor fit]	–
CC(=O)Nc1cc(NC(C)=O)cc(-c2nc3ccccc3[nH]2)c1	inconclusive: 39.8 µM [inhibitor, partial curve, poor fit]	–
N#Cc1c(NC(=O)CSc2ncn[nH]2)sc2c1CCCCC2	inconclusive: 8.91 µM [inhibitor, partial curve, poor fit]	–
CCn1c(SCC(=O)Nc2nccs2)nnc1-c1ccc(S(=O)(=O)N2CCCCC2)cc1	inconclusive: 25.1 µM [inhibitor, partial curve, poor fit]	–
Cc1c(C(=O)N2c3ccccc3Sc3ccccc32)cccc1[N+](=O)[O-]	inconclusive: 15.8 µM [inhibitor, partial curve, poor fit]	–
CC1NC(=O)c2cc3ccccc3cc2-n2c1nc1cc(F)ccc1c2=O (stereo not given)	inconclusive: 2 µM [inhibitor, partial curve, poor fit]	–
Cc1cc(Nc2ccc(C(=O)O)cc2)n2nc(C)nc2n1	inconclusive: 4.47 µM [inhibitor, partial curve]	–
Cc1ccc(S(=O)(=O)/N=C2/C=C(C3C(=O)CC(C)(C)CC3=O)C(=O)c3ccccc32)cc1	inconclusive: 39.8 µM [inhibitor, single point]	–
CC(C)C(=O)Nc1ccc(Cc2ccc(NC(=O)C(C)C)c(O)c2)cc1O	inconclusive: 17.8 µM [inhibitor, partial curve]	–
CN(C(=O)c1cccc(NC(=O)c2ccccc2)c1)C1CCCCC1	inconclusive: 4.47 µM [inhibitor, partial curve]	–

Structures from the list above that have a cyano group, in the order listed:
Compound	Potency	activity, negative = inhibition
CN(CCC#N)c1ccc(/C=C(\C#N)c2ccccn2)cc1	active: 14.1 µM	–
CCOC(=O)C1=C(c2ccccc2)NC(SCC(=O)Nc2ccc(C)cc2)=C(C#N)C1c1ccco1 (stereo not given)	inconclusive: 15.8 µM [inhibitor, partial curve, poor fit]	–
N#Cc1c(NC(=O)CSc2ncn[nH]2)sc2c1CCCCC2	inconclusive: 8.91 µM [inhibitor, partial curve, poor fit]	–
